The values that follow come from patent US20230405134A1, “NOVEL PROTAC CHIMERIC COMPOUND, AND PHARMACEUTICAL COMPOSITION COMPRISING SAME FOR PREVENTING, AMELIORATING, OR TREATING DISEASES THROUGH TARGET PROTEIN DEGRADATION” (POSTECH RESEARCH AND BUSINESS DEVELOPMENT FOUNDATION, priority 2020, published 2023).

Protein sequences, listed by entry. Tags and fused reporters are not part of them.
UniProt Q15788, whole entry: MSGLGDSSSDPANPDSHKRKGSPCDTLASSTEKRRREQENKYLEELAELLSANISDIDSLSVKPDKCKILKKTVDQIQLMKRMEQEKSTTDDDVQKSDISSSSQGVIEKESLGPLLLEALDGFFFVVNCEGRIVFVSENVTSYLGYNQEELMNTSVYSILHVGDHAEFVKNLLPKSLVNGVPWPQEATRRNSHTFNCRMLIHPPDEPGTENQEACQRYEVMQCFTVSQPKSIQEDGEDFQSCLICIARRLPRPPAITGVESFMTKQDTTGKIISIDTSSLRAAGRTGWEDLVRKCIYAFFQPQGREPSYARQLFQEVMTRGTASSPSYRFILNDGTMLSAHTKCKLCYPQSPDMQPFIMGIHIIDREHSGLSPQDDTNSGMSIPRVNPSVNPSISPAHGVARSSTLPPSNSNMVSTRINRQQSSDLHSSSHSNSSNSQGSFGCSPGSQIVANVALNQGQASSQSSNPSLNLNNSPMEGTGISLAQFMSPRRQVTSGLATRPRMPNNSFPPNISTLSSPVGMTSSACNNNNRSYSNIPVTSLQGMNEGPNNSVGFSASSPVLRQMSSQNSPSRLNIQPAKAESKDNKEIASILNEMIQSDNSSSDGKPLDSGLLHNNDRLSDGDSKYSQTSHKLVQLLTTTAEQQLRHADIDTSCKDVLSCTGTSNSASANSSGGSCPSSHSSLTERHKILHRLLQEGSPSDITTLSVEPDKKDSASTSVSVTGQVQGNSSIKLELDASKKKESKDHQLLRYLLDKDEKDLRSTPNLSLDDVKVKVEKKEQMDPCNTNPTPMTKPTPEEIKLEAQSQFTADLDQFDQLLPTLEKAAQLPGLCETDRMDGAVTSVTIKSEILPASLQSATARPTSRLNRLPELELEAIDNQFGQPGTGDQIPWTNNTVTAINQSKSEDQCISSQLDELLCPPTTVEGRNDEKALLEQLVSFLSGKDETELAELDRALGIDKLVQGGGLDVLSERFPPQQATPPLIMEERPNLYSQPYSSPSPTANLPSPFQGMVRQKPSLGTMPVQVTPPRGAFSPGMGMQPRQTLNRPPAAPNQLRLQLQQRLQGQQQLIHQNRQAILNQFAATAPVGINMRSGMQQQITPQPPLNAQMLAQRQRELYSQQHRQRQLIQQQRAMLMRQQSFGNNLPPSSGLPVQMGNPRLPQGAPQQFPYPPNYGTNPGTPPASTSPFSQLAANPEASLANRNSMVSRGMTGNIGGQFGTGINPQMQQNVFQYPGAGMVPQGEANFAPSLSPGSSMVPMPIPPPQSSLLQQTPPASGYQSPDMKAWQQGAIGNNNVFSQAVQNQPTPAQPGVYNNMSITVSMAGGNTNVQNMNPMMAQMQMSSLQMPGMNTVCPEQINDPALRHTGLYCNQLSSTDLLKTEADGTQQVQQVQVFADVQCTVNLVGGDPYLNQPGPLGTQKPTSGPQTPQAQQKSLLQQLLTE

The target of test [1] is T1, SRC-1 (Homo sapiens, UniProt Q15788). The test is described as follows: SRC-1 expression level in MDA-MB-231 cells by Western blot. A general note: A western blot detects proteins with antibodies after separation by electrophoresis.
Test [2] has as its target T1, SRC-1. The test is described as follows: SRC-1 expression level in A549 cells by Western blot. Particulars: various concentrations.
For test [3], the target named is T1, SRC-1. Put plainly: SRC-1 expression level in Colo205 cells by Western blot. Conditions: Colo205 cells expressing very low levels of CRBN, various concentrations.

Structures were worked out from names or drawings and are uncertain.

On to `CC(C)C[C@H](NC(=O)CCOCCOCCNc1cccc2c1C(=O)N(C1CCC(=O)NC1=O)C2=O)C(=O)N[C@@H](CC(C)C)C(=O)N1CCC[C@H]1C(=O)N1CCC[C@H]1C(=O)N[C@H](C(=O)N[C@@H](CCC(=O)O)C(=O)N[C@@H](CCC(N)=O)C(=O)N[C@@H](CC(=O)O)C(=O)N[C@@H](CC(C)C)C(=O)N[C@@]1(C)CCCC=CCCC[C@@](C)(C(=O)N[C@@H](Cc2ccc(O)cc2)C(N)=O)NC(=O)[C@H](CC2CCCCC2)NC(=O)[C@H](CC(C)C)NC(=O)[C@H](CCCCN)NC1=O)[C@@H](C)O` (stereo partly shown), for which the DC50 in test [1] (read-out: DC50 for reduction of SRC-1 expression level, various concentrations) came out at 10 µM. In test [1] (various concentrations), the SRC-1 degradation entry is “strongest activity among the synthesized and treated compounds”. Besides, in test [2], the “Activity in inducing SRC-1 degradation” value was “activity similar to that of ND1-YL2”. Besides, the “Effect on SRC-1 expression level” value in test [3] is “no effect”.
